The record followed here is publication PMC10804981.

By UniProt entry, the sequences of proteins in these tests, tags left out. Where a name states a change or a piece, a line headed by the entry shows the natural chain unless it says otherwise.
UniProt Q06AU7: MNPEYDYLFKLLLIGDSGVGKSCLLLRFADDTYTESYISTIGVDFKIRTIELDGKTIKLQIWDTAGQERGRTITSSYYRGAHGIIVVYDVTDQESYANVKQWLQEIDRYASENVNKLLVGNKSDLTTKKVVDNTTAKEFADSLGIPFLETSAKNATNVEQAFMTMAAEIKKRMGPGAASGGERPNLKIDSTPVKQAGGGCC
UniProt A0A287AWP2: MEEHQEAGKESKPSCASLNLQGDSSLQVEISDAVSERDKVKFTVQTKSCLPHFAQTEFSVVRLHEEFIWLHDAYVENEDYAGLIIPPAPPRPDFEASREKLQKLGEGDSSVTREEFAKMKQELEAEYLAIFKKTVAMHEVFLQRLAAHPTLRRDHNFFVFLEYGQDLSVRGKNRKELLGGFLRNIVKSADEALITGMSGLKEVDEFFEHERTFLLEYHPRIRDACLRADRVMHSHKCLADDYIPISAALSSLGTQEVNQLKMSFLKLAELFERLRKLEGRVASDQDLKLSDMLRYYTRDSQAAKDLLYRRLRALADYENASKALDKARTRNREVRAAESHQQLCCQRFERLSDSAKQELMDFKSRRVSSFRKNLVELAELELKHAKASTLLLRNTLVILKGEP

In the experiment the target is HA-RAB1B (Ras-related protein Rab-1B) (pig (cDNA of PAMs)) (UniProt Q06AU7). Kind of experiment: co-IP.

These are yes or no findings as the source states them, for the method shown. In cells and extracts the contact can be indirect. Binding calls can cover weak binding; strength is not graded here.

As for “Myc-SNX32 (sorting nexin 32) (from UniProt A0A287AWP2)”, the binding result is recorded as “binds”.
